Measured values from the supplement of paper PMC8728848.
Some of the results follow.

How the values were obtained:
Assay in all cases: glycan array binding signal (z-score within array); higher = stronger binding
Conditions in all cases: glycan notation: IUPAC condensed, linker removed
[1] = biological target: Neu5Ac(a2-3)Gal(b1-4)GlcNAc(b1-2)[Neu5Ac(a2-3)Gal(b1-4)GlcNAc(b1-4)]Man(a1-3)[GlcNAc(b1-4)][Neu5Ac(a2-3)Gal(b1-4)GlcNAc(b1-2)[Neu5Ac(a2-3)Gal(b1-4)GlcNAc(b1-6)]Man(a1-6)]Man(b1-4)GlcNAc(b1-4)GlcNAc
Method in brief: (§1)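 Glycan array data came from 3228 arrays in the Consortium for Functional Glycomics database, and only arrays with an available protein sequence were kept. Glycan names were put into IUPAC-condensed notation, and columns mapping to the same glycan were averaged. The binding signal is a within-array Z-score, averaged across arrays of one protein sequence run at different concentrations or buffers and across linkers. A negative Z-score can be read as non-binding.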

[2] = biological target: Neu5Ac(a2-3)Gal(b1-4)GlcNAc(b1-2)[Neu5Ac(a2-3)Gal(b1-4)GlcNAc(b1-4)]Man(a1-3)[GlcNAc(b1-4)][Neu5Ac(a2-3)Gal(b1-4)GlcNAc(b1-4)Man(a1-6)]Man(b1-4)GlcNAc(b1-4)GlcNAc
Method in brief: as §1

[3] = biological target: Neu5Ac(a2-3)Gal(b1-4)GlcNAc(b1-2)[Neu5Ac(a2-3)Gal(b1-4)GlcNAc(b1-6)]Man(a1-6)[Neu5Ac(a2-3)Gal(b1-4)GlcNAc(b1-2)Man(a1-3)][GlcNAc(b1-4)]Man(b1-4)GlcNAc(b1-4)GlcNAc
Method in brief: as §1

[4] = biological target: Neu5Ac(a2-3)Gal(b1-4)GlcNAc(b1-3)Gal
Method in brief: as §1

[5] = biological target: Neu5Ac(a2-3)Gal(b1-4)GlcNAc(b1-3)Gal(b1-3)GlcNAc
Method in brief: as §1

[6] = biological target: Neu5Ac(a2-3)Gal(b1-4)GlcNAc(b1-3)Gal(b1-4)GlcNAc
Method in brief: as §1

[7] = biological target: Neu5Ac(a2-3)Gal(b1-4)GlcNAc(b1-3)Gal(b1-4)GlcNAc(b1-2)Man(a1-3)[Neu5Ac(a2-3)Gal(b1-4)GlcNAc(b1-3)Gal(b1-4)GlcNAc(b1-2)Man(a1-6)]Man(b1-4)GlcNAc(b1-4)GlcNAc
Method in brief: as §1

[8] = biological target: Neu5Ac(a2-3)Gal(b1-4)GlcNAc(b1-3)Gal(b1-4)GlcNAc(b1-3)Gal(b1-4)GlcNAc
Method in brief: as §1

[9] = biological target: Neu5Ac(a2-3)Gal(b1-4)GlcNAc(b1-3)Gal(b1-4)GlcNAc(b1-3)Gal(b1-4)GlcNAc(b1-2)Man(a1-3)[Neu5Ac(a2-3)Gal(b1-4)GlcNAc(b1-3)Gal(b1-4)GlcNAc(b1-3)Gal(b1-4)GlcNAc(b1-2)Man(a1-6)]GalNAc
Method in brief: as §1

[10] = biological target: Neu5Ac(a2-3)Gal(b1-4)GlcNAc(b1-3)Gal(b1-4)GlcNAc(b1-3)GalNAc
Method in brief: as §1

[11] = biological target: Neu5Ac(a2-3)Gal(b1-4)GlcNAc(b1-3)Gal(b1-4)GlcNAc(b1-3)[Neu5Ac(a2-3)Gal(b1-4)GlcNAc(b1-3)Gal(b1-4)GlcNAc(b1-6)]GalNAc
Method in brief: as §1

[12] = biological target: Neu5Ac(a2-3)Gal(b1-4)GlcNAc(b1-3)Gal(b1-4)GlcNAc(b1-6)[Gal(b1-3)]GalNAc
Method in brief: as §1

[13] = biological target: Neu5Ac(a2-3)Gal(b1-4)GlcNAc(b1-3)Gal(b1-4)[Fuc(a1-3)]GlcNAc
Method in brief: as §1

[14] = biological target: Neu5Ac(a2-3)Gal(b1-4)GlcNAc(b1-3)GalNAc
Method in brief: as §1

[15] = biological target: Neu5Ac(a2-3)Gal(b1-4)GlcNAc(b1-3)[Neu5Ac(a2-3)Gal(b1-4)GlcNAc(b1-6)]GalNAc
Method in brief: as §1

[16] = biological target: Neu5Ac(a2-3)Gal(b1-4)GlcNAc(b1-6)GalNAc
Method in brief: as §1

[17] = biological target: Neu5Ac(a2-3)Gal(b1-4)GlcNAc(b1-6)[Gal(b1-3)]GalNAc
Method in brief: as §1

[18] = biological target: Neu5Ac(a2-3)Gal(b1-4)GlcNAc(b1-6)[Neu5Ac(a2-3)Gal(b1-3)]GalNAc
Method in brief: as §1

[19] = biological target: Neu5Ac(a2-3)Gal(b1-4)GlcNAc6S
Method in brief: as §1

[20] = biological target: Neu5Ac(a2-3)Gal(b1-4)[Fuc(a1-3)]GlcNAc
Method in brief: as §1

[21] = biological target: Neu5Ac(a2-3)Gal(b1-4)[Fuc(a1-3)]GlcNAc(b1-2)Man
Method in brief: as §1

[22] = biological target: Neu5Ac(a2-3)Gal(b1-4)[Fuc(a1-3)]GlcNAc(b1-3)Gal
Method in brief: as §1

[23] = biological target: Neu5Ac(a2-3)Gal(b1-4)[Fuc(a1-3)]GlcNAc(b1-3)Gal(b1-4)GlcNAc
Method in brief: as §1

[24] = biological target: Neu5Ac(a2-3)Gal(b1-4)[Fuc(a1-3)]GlcNAc(b1-3)Gal(b1-4)[Fuc(a1-3)]GlcNAc(b1-3)Gal(b1-4)[Fuc(a1-3)]GlcNAc
Method in brief: as §1

[25] = biological target: Neu5Ac(a2-3)Gal(b1-4)[Fuc(a1-3)]GlcNAc(b1-3)GalNAc
Method in brief: as §1

[26] = biological target: Neu5Ac(a2-3)Gal(b1-4)[Fuc(a1-3)]GlcNAc(b1-6)[Gal(b1-3)]GalNAc
Method in brief: as §1

[27] = biological target: Neu5Ac(a2-3)Gal(b1-4)[Fuc(a1-3)]GlcNAc(b1-6)[Neu5Ac(a2-3)Gal(b1-3)]GalNAc
Method in brief: as §1

[28] = biological target: Neu5Ac(a2-3)Gal(b1-4)[Fuc(a1-3)]GlcNAc6S
Method in brief: as §1

[29] = biological target: Neu5Ac(a2-3)Gal6S(b1-4)GlcNAc
Method in brief: as §1

[30] = biological target: Neu5Ac(a2-3)Gal6S(b1-4)[Fuc(a1-3)]GlcNAc
Method in brief: as §1

[31] = biological target: Neu5Ac(a2-3)GalNAc
Method in brief: as §1

[32] = biological target: Neu5Ac(a2-3)GalNAc(b1-4)GlcNAc
Method in brief: as §1

[33] = biological target: Neu5Ac(a2-3)[GalNAc(b1-4)]Gal(b1-4)Glc
Method in brief: as §1

[34] = biological target: Neu5Ac(a2-3)[GalNAc(b1-4)]Gal(b1-4)GlcNAc
Method in brief: as §1

[35] = biological target: Neu5Ac(a2-3)[GalNAc(b1-4)]Gal(b1-4)GlcNAc(b1-3)GalNAc
Method in brief: as §1

[36] = biological target: Neu5Ac(a2-3)[Neu5Ac(a2-6)]GalNAc
Method in brief: as §1

[37] = biological target: Neu5Ac(a2-6)Gal
Method in brief: as §1

B1: SAOUHSC 02783 (Staphylococcus aureus), Q5HD69 (protein)
chain: MIHSKKLTLGICLVLLIILIVGYVIMTKTNGRNAQIKDTFNQTLKLYPTKNLDDFYDKEGFRDQEFKKGDKGTWIVNSEMVIEPKGKDMETRGMVLYINRNTRTTKGYYFISEMTDDSNGRPKDDEKRYPVKMEHNKIIPTKPLPNDKLKKEIENFKFFVQYGNFKDINDYKDGDISYNPNVPSYSAKYQLNNDDYNVQQLRKRYDIPTKQAPKLLLKGDGDLKGSSVGSRSLEFTFVENKEENIYFTDSVQYTPSEDTRYESN
[1]
  glycan array binding signal (z-score): 0.399
[2]
  glycan array binding signal (z-score): 0.63
[3]
  glycan array binding signal (z-score): -0.967
[4]
  glycan array binding signal (z-score): 0.928
[5]
  glycan array binding signal (z-score): 0.634
[6]
  glycan array binding signal (z-score): -0.623
[7]
  glycan array binding signal (z-score): -1
[8]
  glycan array binding signal (z-score): -1.2
[9]
  glycan array binding signal (z-score): 0.617
[10]
  glycan array binding signal (z-score): -0.44
[11]
  glycan array binding signal (z-score): -0.068
[12]
  glycan array binding signal (z-score): -0.542
[13]
  glycan array binding signal (z-score): -0.998
[14]
  glycan array binding signal (z-score): -0.874
[15]
  glycan array binding signal (z-score): 1.4
[16]
  glycan array binding signal (z-score): -0.463
[17]
  glycan array binding signal (z-score): -0.423
[18]
  glycan array binding signal (z-score): -0.818
[19]
  glycan array binding signal (z-score): -1.07
[20]
  glycan array binding signal (z-score): -1.44
[21]
  glycan array binding signal (z-score): -1.22
[22]
  glycan array binding signal (z-score): -0.162
[23]
  glycan array binding signal (z-score): 0.615
[24]
  glycan array binding signal (z-score): -1.17
[25]
  glycan array binding signal (z-score): 0.742
[26]
  glycan array binding signal (z-score): 0.664
[27]
  glycan array binding signal (z-score): -1.13
[28]
  glycan array binding signal (z-score): 0.261
[29]
  glycan array binding signal (z-score): -0.652
[30]
  glycan array binding signal (z-score): 0.323
[31]
  glycan array binding signal (z-score): -0.608
[32]
  glycan array binding signal (z-score): -0.653
[33]
  glycan array binding signal (z-score): 0.453
[34]
  glycan array binding signal (z-score): -0.78
[35]
  glycan array binding signal (z-score): 0.217
[36]
  glycan array binding signal (z-score): -0.905
[37]
  glycan array binding signal (z-score): -0.807
